Test results from patent publication US11834463B2, “High affinity macrocyclic FKB51-inhibitors for treatment of psychiatric disorders” (priority 2020, dated 2023).
At least one structure is not confirmed: it was looked up by name or label, or the drawing left a doubt. Some results were stated once for a whole list of compounds, not compound by compound.

Target: T1, FKBP51FK1 (Homo sapiens, UniProt Q13451)
T1 sequence (Q13451 42-130 limits assumed): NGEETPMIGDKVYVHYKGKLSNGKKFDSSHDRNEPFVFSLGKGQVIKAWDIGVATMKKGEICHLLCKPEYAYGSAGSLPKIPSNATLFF
Description: All macrocyclic compounds were tested in a competitive fluorescence polarization assay for binding towards FKBP51 as well as the homologs FKBP12, FKBP12.6 and FKBP52 (Table 1).
Example 8: […] of the Macrocyclic FKBP51 Ligands by SPPS

COc1ccc(CC[C@H]2OC(=O)[C@@H]3CCCCN3C(=O)[C@@H](C3CCCCC3)CCCCOc3cccc2c3)cc1OC [Compound 76, (2R,5S,12R)-12-cyclohexyl-2-[2-(3,4-dimethoxyphenyl)ethyl]-3,17-dioxa-10-azatricyclo[16.3.1.0^5,10]docosa-1(22),18,20-triene-4,11-dione]
binding to FKBP51 (in words): no binding to FKBP51 could be detected

COc1ccc(CCC2OC(=O)C3CCCCN3C(=O)C(C3CCCCC3)c3cc(OC)c(OC)c(c3)OCC(O)C(O)COc3cccc2c3)cc1OC (single isomer, unassigned) [Compound 64a]
effect of introduction of polar groups on affinity (in words) (text b117): increased affinity

COc1ccc(CC[C@H]2OC(=O)[C@@H]3CCCCN3C(=O)[C@@H](C3CCCCC3)CC(=O)CCOc3cccc2c3)cc1OC [Compound 77, (2R,5S,12R)-12-cyclohexyl-2-[2-(3,4-dimethoxyphenyl)ethyl]-3,17-dioxa-10-azatricyclo[16.3.1.0^5,10]docosa-1(22),18,20-triene-4,11,14-trione]
binding to FKBP51 (in words): no binding to FKBP51 could be detected

COc1ccc(CC[C@H]2OC(=O)[C@@H]3CCCCN3C(=O)[C@@H](C3CCCCC3)CC(=O)CCOCCOc3cccc2c3)cc1OC [Compound 81, (2R,5S,12R)-12-cyclohexyl-2-[2-(3,4-dimethoxyphenyl)ethyl]-3,17,20-trioxa-10-azatricyclo[19.3.1.0^5,10]pentacosa-1(25),21,23-triene-4,11,14-trione]
binding to FKBP51 (in words): no binding to FKBP51 could be detected

COc1ccc(CC[C@H]2OC(=O)[C@@H]3CCCCN3C(=O)[C@@H](C3CCCCC3)CC(O)C(O)COc3cccc2c3)cc1OC (stereo partly drawn) [Compound 78, (2R,5S,12R)-12-cyclohexyl-2-[2-(3,4-dimethoxyphenyl)ethyl]-14,15-dihydroxy-3,17-dioxa-10-azatricyclo[16.3.1.0^5,10]docosa-1(22),18,20-triene-4,11-dione]
binding to FKBP51 (in words): no binding to FKBP51 could be detected

COc1ccc(CC[C@H]2OC(=O)[C@@H]3CCCCN3C(=O)[C@@H](C3CCCCC3)CCCCOCCOc3cccc2c3)cc1OC [Compound 80, (2R,5S,12R)-12-cyclohexyl-2-[2-(3,4-dimethoxyphenyl)ethyl]-3,17,20-trioxa-10-azatricyclo[19.3.1.0^5,10]pentacosa-1(25),21,23-triene-4,11-dione]
binding to FKBP51 (in words): no binding to FKBP51 could be detected
